{"source": "PubChem BioAssay AID2685", "about": "(National Center for Advancing Translational Sciences (NCATS), 2010)", "note": "The whole screen tested about 320,000 compounds, of which about 2,100 (0.66%) were called active. The shares of active, inactive and inconclusive entries below differ from those in the screen. The call rests on the fitted dose curve; in most records, active means well fitted inhibition curve with a large enough effect in the signal ratio, with a control signal flat (not every such curve was filed as active); inconclusive means small, poorly fitted or top-dose-only effect, or effect the other way, or a change in a side signal; inactive means flat fitted curve, though single readings scatter; the % refers to the signal ratio. Potencies beside an inconclusive call are fits to weak or partial responses and may not hold up."}
{"test": "qHTS Assay for Lipid Storage Modulators in Drosophila S3 Cells; further: potency means the concentration at half of the fitted maximal effect; on lipid storage change, negative = inhibition: on the % scale 0 is the no-effect control and ±100 the full control effect", "details": "BODIPY lipid droplet fluorescence, 18-24 h, cells fed with added oleic acid; lipid storage change, negative = inhibition: at 46.1 µM (top of the series) unless noted", "summary_of_the_method": "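Drosophila S3 cells got compounds at several concentrations plus oleic acid (400 uM solution). Laser-scanning cytometry with 488 nm excitation read lipid droplets at 500-530 nm and cells at 575-640 nm. Percent activity was relative to 20 uM Triacsin C.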"}
{"compound": "Cc1ccc(C)c(N2CCN(C(c3ccc(N(C)C)cc3)c3nnnn3C(C)(C)C)CC2)c1", "note": "(configuration not stated)", "lipid storage change, negative = inhibition": "inconclusive: 1.54%"}
{"compound": "CC(=O)c1ccccc1NC(=O)COC(=O)c1ccc2c(c1)nc(C)n2-c1ccccc1", "lipid storage change, negative = inhibition": "inconclusive: 12.9%"}
{"compound": "COc1ccc(N=c2cc(-c3ccc(O)cc3)oc3ccccc23)cc1", "lipid storage change, negative = inhibition": "inconclusive: 15.8%"}
{"compound": "O=C(O)CC1S/C(=N\\N=C2\\C(=O)Nc3ccccc32)N(c2ccc(O)cc2)C1=O", "note": "(configuration not stated)", "lipid storage change, negative = inhibition": "inconclusive: 2.85%"}
{"compound": "Cc1ccc(S(=O)(=O)N(CC(=O)Nc2cccc(C)c2C)C(=O)N2CCN(C)CC2)cc1", "lipid storage change, negative = inhibition": "inconclusive: -18%"}
{"compound": "O=C(O)c1ccc(/C=N/Nc2cccc(C(F)(F)F)c2)cc1", "lipid storage change, negative = inhibition": "inconclusive: 19%"}
{"compound": "COCCCN(C(=O)C1CCC1)c1c(N)n(Cc2ccccc2)c(=O)[nH]c1=O", "lipid storage change, negative = inhibition": "inconclusive: 1.74%"}
{"compound": "COc1ccc(S(N)(=O)=O)cc1C(=O)OCCCC(=O)c1ccccc1", "lipid storage change, negative = inhibition": "inconclusive: -0.16%"}
{"compound": "CC(C)CC1Nc2ncnc(N3CCN(c4ccccc4)CC3)c2N(Cc2ccc(Cl)cc2)C1=O", "note": "(configuration not stated)", "lipid storage change, negative = inhibition": "inconclusive: 16.5%"}
{"compound": "COc1cccc(/C=N/Nc2ccc(S(=O)(=O)O)cc2)c1O", "lipid storage change, negative = inhibition": "inconclusive: 259%"}
{"compound": "CN1CCN(NC(=O)Nc2ccc(Br)cc2Cl)CC1", "Potency": "inconclusive: 1.3 µM [falling, full curve, poor fit]"}
{"compound": "CCc1ccc(N2CC(C(=O)Nc3ccc(S(=O)(=O)NCC4CCCO4)cc3)CC2=O)cc1", "note": "(configuration not stated)", "lipid storage change, negative = inhibition": "inconclusive: -15.9%"}
{"compound": "O=C(CC(c1ccccc1)c1ccccc1)Nc1ccc(C(=O)O)cc1", "lipid storage change, negative = inhibition": "inconclusive: 3.8%"}
{"compound": "NS(=O)(=O)c1ccc(NC(=O)COc2cccc3ccccc23)cc1", "Potency": "inconclusive: 8.2 µM [activator, partial curve]"}
{"compound": "COc1ccc(C2(CNC(=O)c3ccc(N)cc3)CCCC2)cc1", "lipid storage change, negative = inhibition": "inconclusive: 6.45%"}
{"compound": "COc1ccccc1CCN=C(N)NS(=O)(=O)c1cc(F)ccc1F", "lipid storage change, negative = inhibition": "inconclusive: 20.2%"}
{"compound": "O=C(Nc1nccs1)C1CCCN(S(=O)(=O)c2cccc3cccnc23)C1", "note": "(configuration not stated)", "Potency": "inconclusive: 2.06 µM [activator, full curve]"}
{"compound": "Cc1csc(NC(=O)CN2C(=O)COc3ccc(Cl)cc32)n1", "Potency": "inconclusive: 7.31 µM [falling, partial curve, poor fit]"}
{"compound": "C/C(CC(=O)Nc1ccccn1)=N\\NC(=O)c1ccncc1", "Potency": "inconclusive: 29.1 µM [falling, single point]"}
{"compound": "Cc1cccc(C(=O)NCCN2CCOCC2)c1[N+](=O)[O-]", "lipid storage change, negative = inhibition": "inconclusive: 17.5%"}
{"compound": "O=S(=O)(NCCc1ccccc1)c1cccc2nsnc12", "lipid storage change, negative = inhibition": "inconclusive: -111%"}
{"compound": "Cc1cc(-c2ccco2)n(CC(=O)NCCCc2ccccc2)n1", "lipid storage change, negative = inhibition": "inconclusive: 18.6%"}
{"compound": "Cc1cc(Cl)n2c(nc3cc(F)c(F)cc32)c1C#N", "Potency": "inconclusive: 29.1 µM [falling, single point]"}
{"compound": "CCOc1ccccc1N1CCN(C(=O)c2cc(-c3cc(OC)ccc3OC)nc3ccccc23)CC1", "lipid storage change, negative = inhibition": "inconclusive: -36.1%"}
{"compound": "O=C(CN1CCN(S(=O)(=O)c2cccc(Br)c2)CC1)N1CCCCC1", "lipid storage change, negative = inhibition": "inconclusive: -0.976%"}
{"compound": "COc1ccc(C2CC(=O)c3c(C)nc(N4CCN(Cc5ccccc5)CC4)nc3C2)cc1OC", "note": "(configuration not stated)", "lipid storage change, negative = inhibition": "inconclusive: -5.01%"}
{"compound": "COc1ccc(OCC(=O)Nc2nnc(C)s2)cc1", "lipid storage change, negative = inhibition": "inconclusive: 20.8%"}
{"compound": "COc1cc([N+](=O)[O-])c2ncsc2c1", "lipid storage change, negative = inhibition": "inconclusive: 7.61%"}
{"compound": "CSCC[C@H](NC(=O)COc1ccc(Cl)cc1)c1nc2ccccc2[nH]1", "Potency": "inconclusive: 18.4 µM [activator, single point]"}
{"compound": "COc1ccc(C(C)=O)cc1CN(C)C", "lipid storage change, negative = inhibition": "inconclusive: -7.62%"}
{"compound": "O=C(Oc1ccc([N+](=O)[O-])cc1)c1cc(-c2ccccc2)nc2ccccc12", "lipid storage change, negative = inhibition": "inconclusive: 7.22%"}
{"compound": "Cc1ccc(S(=O)(=O)c2nc(-c3ccco3)oc2SCC(N)=O)cc1", "Potency": "inconclusive: 6.51 µM [activator, partial curve, poor fit]"}
{"compound": "COc1cc(CNc2ncnc3c2[nH]c2ccc(C)cc23)cc(OC)c1", "lipid storage change, negative = inhibition": "inconclusive: -27.2%"}
{"compound": "O=C1C=C(N2CCOCC2)C2(CCCCC2)O1", "lipid storage change, negative = inhibition": "inconclusive: -35.1%"}
{"compound": "O=C1c2ccccc2C(=O)N1S(=O)(=O)c1ccccc1", "lipid storage change, negative = inhibition": "inconclusive: 38.4%"}
{"compound": "CN(Cc1ccccc1)C1(CNC(=O)CCC(F)(F)F)Cc2ccccc2C1", "lipid storage change, negative = inhibition": "inconclusive: -41.1%"}
{"compound": "Cc1nn(C)cc1CNC(=O)Nc1ccc(Br)cc1Cl", "Potency": "inconclusive: 1.84 µM [activator, partial curve]"}
{"compound": "CC1CCCC(NC(=O)CCn2c(=O)oc3ccccc32)C1C", "note": "(configuration not stated)", "lipid storage change, negative = inhibition": "inconclusive: 5.67%"}
{"compound": "O=c1[nH]c(C2CCCN(S(=O)(=O)c3ccc(F)cc3)C2)nc2c1nnn2Cc1ccc(F)cc1", "note": "(configuration not stated)", "lipid storage change, negative = inhibition": "inconclusive: 29.9%"}
{"compound": "COc1ccc(S(=O)(=O)N2CCC(C(=O)NCCc3c[nH]c4ccccc34)CC2)cc1", "lipid storage change, negative = inhibition": "inconclusive: -24.7%"}
{"compound": "C=CCOc1c(OC)cc(/C=N/Nc2cccc(C(=O)O)c2)c(Br)c1Br", "lipid storage change, negative = inhibition": "inconclusive: 13.6%"}
{"compound": "Cc1ccc(C(=O)C(C)OC(=O)Cn2c(C)csc2=O)cc1", "note": "(configuration not stated)", "Potency": "inconclusive: 14.6 µM [activator, partial curve, poor fit]"}
{"compound": "CC(=O)NCCC(=O)Nc1cc(S(=O)(=O)N2CCCCC2)ccc1Oc1cccc(C)c1", "Potency": "inconclusive: 2.31 µM [falling, full curve, poor fit]"}
{"compound": "CCc1nnc(SCc2ccc(C(=O)OC)o2)n1N", "lipid storage change, negative = inhibition": "inconclusive: 43.1%"}
{"compound": "O=C(Nc1cn(-c2ccccc2)nc1-c1ccccc1)c1ccccc1", "Potency": "inconclusive: 0.0052 µM [activator, full curve, poor fit]"}
{"compound": "COC(=O)c1cc(S(=O)(=O)N2CCN(c3ccccc3OC)CC2)cn1C", "lipid storage change, negative = inhibition": "inconclusive: -17.9%"}
{"compound": "Cc1ccc(C(=O)CN2C(=O)NC3(CCc4ccccc43)C2=O)s1", "note": "(configuration not stated)", "Potency": "inconclusive: 29.1 µM [falling, single point]"}
{"compound": "O=C(O)CCc1nn2cnc3sc4c(c3c2nc1=O)CCCC4", "lipid storage change, negative = inhibition": "inconclusive: 22.7%"}
{"compound": "CC(=O)c1ccc(C(=O)N(C)C2CCCN(Cc3ccccc3F)C2)s1", "note": "(configuration not stated)", "Potency": "inconclusive: 29.1 µM [activator, single point]"}
{"compound": "Cc1ccc2oc(NC(=O)N3CCOCC3)cc(=O)c2c1", "lipid storage change, negative = inhibition": "inconclusive: 8.97%"}
{"compound": "Cc1nc2sc(C(=O)c3ccccc3)c(N)c2c(C)c1C", "lipid storage change, negative = inhibition": "inconclusive: 8.85%"}
{"compound": "CN(C(=O)CO/N=C/c1ccc(OC(F)F)cc1)C1CCS(=O)(=O)C1", "note": "(configuration not stated)", "lipid storage change, negative = inhibition": "inconclusive: -20.2%"}
{"compound": "Cc1cccc2nc(Cn3c(=O)n(CCC(=O)NCc4ccco4)c(=O)c4sccc43)cc(=O)n12", "Potency": "inconclusive: 10.3 µM [activator, partial curve, poor fit]"}
{"compound": "CCOC(=O)c1ccc2c(c1)C1C=CCC1C(C(=O)O)N2", "note": "(configuration not stated)", "lipid storage change, negative = inhibition": "inconclusive: 11%"}
{"compound": "Cc1sc(NC(=O)Cc2ccc3c(c2)OCO3)nc1-c1ccc2c(c1)CCN2C(=O)c1cccc(F)c1", "Potency": "inconclusive: 6.51 µM [activator, single point]"}
{"compound": "COc1ccccc1C1C([N+](=O)[O-])=CC([N+](=O)[O-])=CN1C", "note": "(configuration not stated)", "Potency": "inconclusive: 29.1 µM [falling, single point]"}
{"compound": "S=c1[nH]nc(-c2ccco2)n1-c1ccccc1Cl", "lipid storage change, negative = inhibition": "inconclusive: 4.08%"}
{"compound": "Cc1ccc(S(=O)(=O)N2CCN(C(=O)c3ccco3)CC2)cc1", "Potency": "inconclusive: 6.51 µM [falling, single point]"}
{"compound": "Cc1cccc(OCCCc2c(C)n[nH]c2C)c1", "lipid storage change, negative = inhibition": "inconclusive: 39.1%"}
{"compound": "[O-][n+]1ccccc1SC/C=C/c1ccccc1", "lipid storage change, negative = inhibition": "inconclusive: 81.9%"}
{"compound": "CCOC(=O)N1CCC(NS(=O)(=O)c2cc(Br)cnc2N)CC1", "lipid storage change, negative = inhibition": "inconclusive: 32.2%"}
{"compound": "O=C(Nn1c(C2CCCCC2)nc2ccccc2c1=O)c1ccc([N+](=O)[O-])cc1", "lipid storage change, negative = inhibition": "inconclusive: 13.9%"}
{"compound": "Cc1ccccc1CSc1ccc(-c2ccc3c(c2)OCO3)nn1", "lipid storage change, negative = inhibition": "inconclusive: 0.11%"}
{"compound": "Cc1cc(NC(=O)CCC(=O)N(c2cccnc2)C(C(=O)NC2CCCC2)c2ccccc2)no1", "note": "(configuration not stated)", "Potency": "inconclusive: 2.06 µM [activator, full curve, poor fit]"}
{"compound": "CCC1CCCCN1CCCNC(=O)c1ccc(CS(=O)(=O)c2ccc(Br)cc2)o1", "note": "(configuration not stated)", "lipid storage change, negative = inhibition": "inconclusive: 66.5%"}
{"compound": "CC1CCN(C(=O)c2cc3c(=O)n4ccccc4nc3s2)CC1", "lipid storage change, negative = inhibition": "inconclusive: -42.8%"}
{"compound": "Nc1ccc2nn(-c3ccc(F)cc3)nc2c1", "Potency": "inconclusive: 29.1 µM [activator, single point]"}
{"compound": "CCn1cc(C(=O)OC)c(=O)c2ccc(C)nc21", "lipid storage change, negative = inhibition": "inactive: -1.46%"}
{"compound": "CCOC(=O)N1CCN(C(=O)c2cnc(Nc3ccccc3OC)c3ccccc23)CC1", "Potency": "inconclusive: 0.58 µM [rising, partial curve]"}
{"compound": "Cn1c(SCC(=O)Nc2cc(S(=O)(=O)N3CCOCC3)ccc2N2CCOCC2)nnc1-c1ccncc1", "lipid storage change, negative = inhibition": "inconclusive: 0.548%"}
{"compound": "Cc1cccc(NC(=O)CN2CCN(C(=O)C(C)Oc3ccc(C#N)cc3)CC2)c1C", "note": "(configuration not stated)", "lipid storage change, negative = inhibition": "inconclusive: 1.52%"}
{"compound": "CC(=O)Nc1ccc(S(=O)(=O)NNC(=O)COc2ccc(C)cc2)cc1", "lipid storage change, negative = inhibition": "inconclusive: 21.6%"}
{"compound": "COc1ccccc1CN1Cc2cccc3c2[C@@H](CC1=O)[C@H](O)[C@H](O)C3", "Potency": "inconclusive: 29.1 µM [activator, partial curve, poor fit]"}
{"compound": "O=C(/C(=C/O)N=Nc1ccccc1)c1cccs1", "lipid storage change, negative = inhibition": "inconclusive: -29.3%"}
{"compound": "CN(C)c1ccnc2sc3c(NCC(O)CO)ncnc3c12", "note": "(configuration not stated)", "lipid storage change, negative = inhibition": "inconclusive: 20.3%"}
{"compound": "CC(=O)Nc1ccc(SC(C)C(=O)NC2CCCC2)cc1", "note": "(configuration not stated)", "lipid storage change, negative = inhibition": "inconclusive: 9.21%"}
{"compound": "COc1cc(C(=O)Nc2cccc3cccnc23)cc(OC)c1OC", "Potency": "inconclusive: 25.9 µM [falling, single point]"}
